Measured data: PubChem BioAssay AID1259308 (NCATS, 2017)

Screen: 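Knock-downs that increase output of a recombinant reporter protein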 (primary screen)
System: human HEK293 embryonic kidney cells stably expressing firefly luciferase (HEK-CMV-Luc2-Hygro)
Reagent: single siRNA against human genes, 0.8 pmol siRNA per well
Time to read-out: 72 h
Detection: 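Reporter luminescence and viable-cell signal on separate replicate plates, given as percent of non-targeting control and median/MAD z-scores, plus per-cell luciferase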
Reading the numbers: total luciferase, z-score and total luciferase, % of control: higher = more reporter protein produced
Active means: 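An siRNA counts as active if its total luciferase robust z-score exceeds 3; genes with two or more such siRNAs out of three were retested with fresh siRNAs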
Meaning of the calls: active = raised luciferase; inactive = no rise
Here is a random part of about 59,000 reagents tested. Of all reagents, about 1,510 (2.6%) are marked active. 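Calls use total luciferase alone and ignore viability, so some active siRNAs may act by altering cell number.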 Entries without a mark were called inactive. Reagents against one gene are numbered here. Further read-outs or replicates are left out here.

gene | reagent no. | total luciferase, z-score | total luciferase, % of control
SPATA19 (GeneID 219938) | 1 | -0.593 | 70.1
SPATA19 (GeneID 219938) | 2 | -0.8 | 66
SPATA19 (GeneID 219938) | 3 | 0.334 | 88.5
SNRPD1 (GeneID 6632) | 1 | 2.55 | 133
SNRPD1 (GeneID 6632) | 2 | 0.232 | 86.5
SNRPD1 (GeneID 6632) | 3 | 1.45 | 111
ARPC5 (GeneID 10092) | 1 | 1.76 | 117
ARPC5 (GeneID 10092) | 2 | 0.09 | 83.7
ARPC5 (GeneID 10092) | 3 | -0.538 | 71.2
PIP4K2A (GeneID 5305) | 1 | 0.968 | 101
PIP4K2A (GeneID 5305) | 2 | -0.703 | 67.9
PIP4K2A (GeneID 5305) | 3 | 0.534 | 92.5
PCSK1 (GeneID 5122) | 1 | -0.0537 | 80.8
PCSK1 (GeneID 5122) | 2 | -0.362 | 74.7
PCSK1 (GeneID 5122) | 3 | -0.253 | 76.8
TTYH1 (GeneID 57348) | 1 | 2.61 | 134
TTYH1 (GeneID 57348) | 2 | 0.854 | 98.9
TTYH1 (GeneID 57348) | 3 | -1.2 | 58
OR6K3 (GeneID 391114) | 1 | -0.0561 | 80.8
OR6K3 (GeneID 391114) | 2 | -1.08 | 60.4
OR6K3 (GeneID 391114) | 3 | -0.045 | 81
TCEAL1 (GeneID 9338) | 1 | -0.0878 | 80.1
TCEAL1 (GeneID 9338) | 2 | 0.0904 | 83.7
TCEAL1 (GeneID 9338) | 3 | -1.04 | 61.2
SLC35E1 (GeneID 79939) | 1 | -1.07 | 60.5
SLC35E1 (GeneID 79939) | 2 | 0.224 | 86.3
SLC35E1 (GeneID 79939) | 3 | 1.89 | 119
ACSL1 (GeneID 2180) | 1 | 2.51 | 132
ACSL1 (GeneID 2180) | 2 | -0.031 | 81.3
ACSL1 (GeneID 2180) | 3 | 0.157 | 85
DAXX (GeneID 1616) | 1 | -0.0965 | 80
DAXX (GeneID 1616) | 2 | -0.38 | 74.3
DAXX (GeneID 1616) | 3 | -0.785 | 66.3
ZBED1P1 (GeneID 645145) | 1 | 1.28 | 107
ZBED1P1 (GeneID 645145) | 2 | -0.0748 | 80.4
ZBED1P1 (GeneID 645145) | 3 | 0.237 | 86.6
ACTR3C (GeneID 653857) | 1 | 1.22 | 106
ACTR3C (GeneID 653857) | 2 | 1.65 | 115
ACTR3C (GeneID 653857) | 3 | -0.802 | 65.9
ZNF324 (GeneID 25799) | 1 | -0.469 | 72.6
ZNF324 (GeneID 25799) | 2 | 0.713 | 96.1
ZNF324 (GeneID 25799) | 3 | 0.0676 | 83.2
LURAP1L (GeneID 286343) | 1 | -0.469 | 72.6
LURAP1L (GeneID 286343) | 2 | -0.843 | 65.1
LURAP1L (GeneID 286343) | 3 | 0.454 | 90.9
TCOF1 (GeneID 6949) | 1 | 0.0392 | 82.7
TCOF1 (GeneID 6949) | 2 | 1.08 | 103
TCOF1 (GeneID 6949) | 3 | 2.73 | 136
MAD1L1 (GeneID 8379) | 1 | -1.09 | 60.3
MAD1L1 (GeneID 8379) | 2 | -1.47 | 52.6
MAD1L1 (GeneID 8379) | 3 | 0.411 | 90.1
NCEH1 (GeneID 57552) | 1 | 0.161 | 85.1
NCEH1 (GeneID 57552) | 2 | -0.393 | 74.1
NCEH1 (GeneID 57552) | 3 | -0.823 | 65.5
TMEM145 (GeneID 284339) | 1 | 0.0182 | 82.2
TMEM145 (GeneID 284339) | 2 | 1.03 | 102
TMEM145 (GeneID 284339) | 3 | -1.9 | 44.1

Reformatted: entries from further up.
| gene | reagent no. | total luciferase, z-score | total luciferase, % of control |
| --- | --- | --- | --- |
| SLC35E1 (GeneID 79939) | 2 | 0.224 | 86.3 |
| SLC35E1 (GeneID 79939) | 3 | 1.89 | 119 |
| ACSL1 (GeneID 2180) | 1 | 2.51 | 132 |
| ACSL1 (GeneID 2180) | 2 | -0.031 | 81.3 |
| ACSL1 (GeneID 2180) | 3 | 0.157 | 85 |
| DAXX (GeneID 1616) | 1 | -0.0965 | 80 |
| DAXX (GeneID 1616) | 2 | -0.38 | 74.3 |
| DAXX (GeneID 1616) | 3 | -0.785 | 66.3 |
| ZBED1P1 (GeneID 645145) | 1 | 1.28 | 107 |
